Assay: peptide synthesis
Conditions: conjugation step

C-GFTQPETGTDNDLWSVDNEK
conjugation yield: 68%

— patent US20160270687A1 (priority 2013, published 2016)
